For test [1], the target named is endogenous cytosolic PCNA of HL-60 cells (human (endogenous in HL-60)) (UniProt P12004). The experiment in a line: affinity purification with mass spectrometry; co-immunoprecipitation of endogenous PCNA from the cytosolic fraction of daunorubicin-resistant HL-60R cells; partners identified by mass spectrometry (details in Supplementary Methods).
For test [2] the target is unchanged. As to the kind of experiment: condition: only in daunorubicin-resistant HL-60R cells; affinity purification with mass spectrometry; co-immunoprecipitation of endogenous PCNA from the cytosolic fraction of daunorubicin-resistant HL-60R cells; partners identified by mass spectrometry (details in Supplementary Methods).
For test [3] the target is unchanged. As to the kind of experiment: affinity purification with mass spectrometry; co-immunoprecipitation of endogenous PCNA from the cytosolic fraction of HL-60S cells; partners identified by mass spectrometry (details in Supplementary Methods).

The chains behind the UniProt entries cited, without tags or fusion partners.
UniProt P12004: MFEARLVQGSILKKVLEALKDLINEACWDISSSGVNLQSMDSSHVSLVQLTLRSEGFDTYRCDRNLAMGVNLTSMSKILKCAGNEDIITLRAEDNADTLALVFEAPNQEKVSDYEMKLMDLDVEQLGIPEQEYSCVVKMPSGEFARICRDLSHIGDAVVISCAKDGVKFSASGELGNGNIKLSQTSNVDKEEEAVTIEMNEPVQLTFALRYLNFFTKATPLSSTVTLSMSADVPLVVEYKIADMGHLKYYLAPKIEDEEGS
UniProt P43490: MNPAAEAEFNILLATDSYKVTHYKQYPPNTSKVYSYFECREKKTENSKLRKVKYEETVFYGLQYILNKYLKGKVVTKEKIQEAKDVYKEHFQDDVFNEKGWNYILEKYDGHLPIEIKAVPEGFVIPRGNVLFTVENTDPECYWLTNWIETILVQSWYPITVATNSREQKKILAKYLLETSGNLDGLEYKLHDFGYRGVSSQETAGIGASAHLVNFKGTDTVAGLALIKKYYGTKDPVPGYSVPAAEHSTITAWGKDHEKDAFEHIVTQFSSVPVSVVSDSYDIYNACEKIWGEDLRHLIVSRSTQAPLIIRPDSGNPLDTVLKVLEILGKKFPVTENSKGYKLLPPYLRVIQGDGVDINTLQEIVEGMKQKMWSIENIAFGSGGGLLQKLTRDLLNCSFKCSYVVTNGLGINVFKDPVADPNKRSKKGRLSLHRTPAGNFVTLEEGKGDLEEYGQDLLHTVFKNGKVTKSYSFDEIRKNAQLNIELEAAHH
UniProt P14618: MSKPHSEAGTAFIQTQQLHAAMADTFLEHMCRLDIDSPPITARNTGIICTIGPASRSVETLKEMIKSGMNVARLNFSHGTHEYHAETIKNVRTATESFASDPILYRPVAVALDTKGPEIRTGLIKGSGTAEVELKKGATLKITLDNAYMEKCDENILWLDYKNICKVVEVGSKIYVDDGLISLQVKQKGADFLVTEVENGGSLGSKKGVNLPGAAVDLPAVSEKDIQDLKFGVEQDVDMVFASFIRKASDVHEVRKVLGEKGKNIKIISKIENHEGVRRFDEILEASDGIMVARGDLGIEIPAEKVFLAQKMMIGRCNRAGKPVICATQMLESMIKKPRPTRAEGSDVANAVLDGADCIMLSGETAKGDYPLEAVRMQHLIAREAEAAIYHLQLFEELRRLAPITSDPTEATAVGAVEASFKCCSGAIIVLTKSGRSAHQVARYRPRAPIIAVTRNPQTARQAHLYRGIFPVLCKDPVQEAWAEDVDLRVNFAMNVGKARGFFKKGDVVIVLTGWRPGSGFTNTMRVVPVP

These are yes or no findings as the source states them, for the method shown. Binding seen in cells or lysates may run through a third protein. A yes stands for co-enrichment or nearness to the bait. Other partners may have been found. For part of these data: A no says only that the protein was not detected with the bait.

For the substance “endogenous nicotinamide phosphoribosyltransferase (NAMPT) of HL-60 cells (from UniProt P43490 1-491) (enzyme)”, the binding entry in test [1] was “binds”.

Regarding “pyruvate kinase PKM2 (from UniProt P14618 1-531) (enzyme)”, the binding entry was “no binding” in test [2] and “binds” in test [3].
